# Tested on: HEK293 cells expressing mS1PR1-eGFP
# Assay: Confocal microscopy count of cytosolic eGFP+ clusters (receptor internalisation), mS1PR1-eGFP
# Format: cell-based, human
# Conditions: 0.1 µM, 20 min
# Procedure: Cells expressing S1PR1-eGFP or mS1PR1-eGFP were plated onto poly-L-lysine-coated 8 well µ-slides (Ibidi) at 3 × 10^4 cell/well. […] Images were deconvoluted using Huygens Professional Software (Scientific Volume Imaging). Mid-plane z-sections were used for counting cytosolic GFP^+ vesicles in cells stimulated for 20 min. Confocal imaging was performed at the Advanced Light and Electron Microscopy Bioimaging Centre of IRCCS San Raffaele Scientific Institute. We used a custom Matlab script (Supplementary Data 1) performing the following image analysis: (i) the membranes were segmented from the image, identifying regions of both absolute and local high intensity (Supplementary Fig. 9A–G) in order to include all the membranes independently of their intensity; (ii) morphological erosion was used to clear small objects and to smooth the edges of the identified membranes (Supplementary Fig. 9H, I); (iii) the region of interest was defined as the region completely enclosed by a membrane (Supplementary Fig. 9J, K); (iv) GFP^+ cytosolic vesicles were identified as local intensity maxima (Supplementary Fig. 9L–O) within the region of interest and counted. Experiments were replicated independently three times. The number of vesicles from 40 to 150 cells were counted as detailed in Fig. 4 legend and the statistical analysis performed with the GraphPad Prism software.
row,Structure (SMILES),"Cohen's d-value, untreated vs. ligand (clusters/cell)"
1,"CCCCCCCCc1ccc(CC[C@](N)(CO)COP(=O)(O)O)cc1 [FTY720-P, FTY720 (S)-phosphate]",0.35
2,"CCCCCCCCCCCCC/C=C/[C@@H](O)[C@@H](N)COP(=O)(O)O [S1P, Sphingosine 1-phosphate]",0.13
